Source: PubChem BioAssay AID1487 (National Center for Advancing Translational Sciences (NCATS), 2009)
Where “and” joins values, the source holds several entries; their conditions need not be identical. Equal entries are not always repeated. The list shows a part of the results. Shown are side measurements of this screen, not its main read-out; they come without a call. Most of these compounds were active or inconclusive in the main read-out, so they are no random draw. Words in brackets tell the shape of the fitted curve; partial curves, single points and poor fits give uncertain potencies.

Assay: qHTS Assay for Modulators of Lamin A Splicing
Details: HeLa LMNA splicing GFP/RFP minigene ratio, 48 h
Procedure, shortened: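 S3 HeLa stable clones carrying a lamin A-EGFP splicing minigene plus DsRed2 were seeded at 600 cells/well in Opti-MEM with 2% FBS, pin-dosed and incubated 48 h at 37°C. Acumen cytometry (488 nm) gave the GFP/RFP total-intensity ratio.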

[1] = measured here: GFP splicing reporter channel
[2] = measured here: RFP viability control channel

## OC1(c2cccnc2)CCN(Cc2nnnn2C2CCCCC2)CC1
[1]
  AC50: 3.55 µM [falling, partial curve]

## CCc1nc2ccccc2n1CC1CC1(Cl)Cl (stereo unspecified)
[1]
  AC50: 0.00447 µM [rising, full curve, poor fit]
[2]
  AC50: 0.00398 µM [rising, full curve, poor fit]

## Cc1ccc(NC(=O)CSc2nc(C)c(C)c(C)n2)c([N+](=O)[O-])c1
[1]
  AC50: 31.6 µM [rising, single point]
[2]
  AC50: 20 µM [rising, single point]

## COc1ccc2c(c1)OC1(O)COc3cc(OC)c(OC)cc3C1=C2 (stereo unspecified)
[1]
  AC50: 14.1 µM [rising, single point]
[2]
  AC50: 35.5 µM [rising, single point]

## CCOC(=O)C1=C(Cc2ccc(OC)cc2)C(=O)c2ccccc2C1=O
[2]
  AC50: 11.2 µM [rising, partial curve]

## O=C(Nc1ccc(C2CC2(Cl)Cl)cc1)c1ccccc1Br (stereo unspecified)
[2]
  AC50: 35.5 µM [rising, partial curve, poor fit]

## CCCc1n(CC(O)COCc2ccccc2)c2ccccc2[n+]1C (stereo unspecified)
[1]
  AC50: 0.0794 µM [rising, full curve, poor fit]

## O=C(NCc1ccc(Cl)cc1)C1CCCN(c2nc3ccccc3n3cccc23)C1 (stereo unspecified)
[2]
  AC50: 20 µM [falling, single point]

## CCN(c1ccc(OC)cc1)S(=O)(=O)c1ccc2[nH]c(=O)ccc2c1
[2]
  AC50: 8.91 µM [rising, partial curve]

## C=CCn1c(SCC(=O)Nc2cccnc2Cl)nnc1-c1ccc(Cl)cc1
[2]
  AC50: 22.4 µM [rising, partial curve]

## Cc1c(NC(=O)/C(C#N)=C/c2c(Oc3ccccc3)nc3ccccn3c2=O)c(=O)n(-c2ccccc2)n1C
[2]
  AC50: 35.5 µM [rising, single point]

## Nc1c(-c2nc(-c3cccs3)no2)nnn1-c1cccc(Cl)c1
[1]
  AC50: 0.158 µM [rising, full curve, poor fit]

## Cc1cc(C2=NNC(=NC3CC3)SC2)c(C)n1-c1ccccc1F
[2]
  AC50: 35.5 µM [rising, single point]

## Cc1cc(NC(=O)C(=O)NCCN2CCN(C(=O)c3cccs3)CC2)ccc1Br
[2]
  AC50: 15.8 µM [rising, single point]

## CCOC(=O)/C(=N/Nc1ccc(OC)cc1)Sc1nnc(CCc2ccccc2)n1-c1ccccc1
[1]
  AC50: 35.5 µM [falling, single point]

## CCc1ccc(Nc2ncnc3c2cnn3-c2cc(Cl)ccc2C)cc1
[1]
  AC50: 10 µM [falling, partial curve, poor fit]

## Cc1cc(OCc2ccc(F)cc2)nc(-c2ccccc2O)n1
[1]
  AC50: 10 µM [rising, partial curve, poor fit]
[2]
  AC50: 11.2 µM [rising, single point]

## Cc1ccc(C)c(OCCCC(=O)Nc2nccs2)c1
[1]
  AC50: 6.31 µM [rising, full curve]
[2]
  AC50: 8.91 µM [rising, partial curve]

## CCOc1ccccc1CC1C(=O)Nc2ccc(Br)cc21 (stereo unspecified)
[1]
  AC50: 14.1 µM [falling, partial curve, poor fit]
[2]
  AC50: 35.5 µM [falling, single point]

## O=C(NCc1ccc(N2CCCC2=O)cc1)c1cccc(Cl)c1
[2]
  AC50: 0.112 µM [rising, full curve, poor fit]

## CSc1cccc(NC(=O)C2CCN(C(=O)c3ccccc3C)CC2)c1
[1]
  AC50: 12.6 µM [rising, partial curve]
[2]
  AC50: 17.8 µM [rising, partial curve]

## COc1ccc(S(=O)(=O)N(C)C)cc1NCC(=O)Nc1ccc(Br)cc1F
[2]
  AC50: 14.1 µM [rising, partial curve]

## COc1cc(/C=C(/C#N)c2ccc(F)cc2)ccc1Oc1ccc([N+](=O)[O-])cn1
[1]
  AC50: 3.55 µM [rising, full curve, poor fit]
[2]
  AC50: 7.94 µM [rising, partial curve]

## Cc1ccnc(NC(=O)CCC(=O)N(CC(=O)NC2CCCCC2)CC2CCCO2)c1 (stereo unspecified)
[2]
  AC50: 5.62 µM [falling, single point]

## O=S(=O)(Nc1ccc(N=Nc2ccc(O)c3ccccc23)cc1)c1ccccc1
[1]
  AC50: 35.5 µM [falling, single point]
[2]
  AC50: 35.5 µM [falling, single point]

## COc1ccc(NC(=S)c2ccncc2)cc1
[1]
  AC50: 14.1 µM [rising, partial curve]
[2]
  AC50: 12.6 µM [rising, partial curve]

## CC(=O)Oc1ccc(OC(C)=O)c(SCCCCCCl)c1
[1]
  AC50: 3.55 µM [falling, full curve, poor fit]
[2]
  AC50: 14.1 µM [falling, partial curve]

## CC1Cc2ccccc2N1C(=O)CSc1ccccc1 (stereo unspecified)
[1]
  AC50: 17.8 µM [rising, single point]

## O=C(NC(NC(=S)Nc1c(Cl)cccc1Cl)C(Cl)(Cl)Cl)OCc1ccccc1 (stereo unspecified)
[1]
  AC50: 15.8 µM [falling, single point]

## CC(c1ccco1)N(C(=O)c1ccccc1NS(=O)(=O)c1cc([N+](=O)[O-])ccc1Cl)c1ccccn1 (stereo unspecified)
[1]
  AC50: 0.282 µM [falling, full curve, poor fit]
[2]
  AC50: 0.158 µM [falling, full curve, poor fit]

## COc1ccc(-c2cc(=O)c3c(O)cc(O)c(-c4cc(-c5cc(=O)c6c(O)cc(O)cc6o5)ccc4OC)c3o2)cc1
[1]
  AC50: 12.6 µM [falling, partial curve]
[2]
  AC50: 20 µM [falling, partial curve]

## Cc1ccc(NS(=O)(=O)c2ccc(N3CCN(c4ccc(O)cc4)CC3)c([N+](=O)[O-])c2)c(C)c1
[1]
  AC50: 12.6 µM [rising, partial curve, poor fit]
[2]
  AC50: 17.8 µM [rising, partial curve]

## O=C(Nc1cccc(Cl)c1)OCCN1CCN(Cc2ccccc2)CCC1=O
[2]
  AC50: 17.8 µM [rising, partial curve]

## Cc1ccc(N(Cc2cccs2)C(=O)c2ccc(Br)o2)cc1
[2]
  AC50: 14.1 µM [rising, single point]

## Cc1ccc(O)c(N=Nc2ccccc2)n1
[1]
  AC50: 3.98 µM [falling, full curve]
[2]
  AC50: 7.08 µM [falling, partial curve]

## O=C(/C=C/c1ccccc1[N+](=O)[O-])N1CCN(c2ccccc2F)CC1
[1]
  AC50: 2 µM [rising, partial curve]
[2]
  AC50: 0.631 µM [rising, full curve]

## Cc1cccc(C(=O)NC2CCCc3ccccc32)c1 (stereo unspecified)
[1]
  AC50: 35.5 µM [falling, single point]
[2]
  AC50: 25.1 µM [falling, single point]

## Cc1nn(Cc2ccccc2)c(C)c1NC(=O)c1cccs1
[2]
  AC50: 3.16 µM [falling, single point]

## Cn1c(-c2ccc(F)cc2)cnc1SCC(=O)N1CCCc2ccccc21
[2]
  AC50: 31.6 µM [rising, single point]

## Cc1c(O)ccc(-c2[nH]ncc2-c2nc3ccccc3s2)c1O
[2]
  AC50: 31.6 µM [rising, single point]

## O=C(NCc1cccnc1)c1cccc(S(=O)(=O)N2CCCCC2)c1
[2]
  AC50: 11.2 µM [rising, single point]

## COC(=O)c1ccc2c(=O)n(CCCCCC(=O)N3CCN(c4ccc(OC)cc4)CC3)c(=O)[nH]c2c1
[2]
  AC50: 5.62 µM [falling, single point]

## COc1cccc(C2=NOC(C(=O)NCc3ccccc3)C2)c1 (stereo unspecified)
[1]
  AC50: 3.16 µM [falling, full curve]
[2]
  AC50: 4.47 µM [falling, full curve]

## CCC(C)Sc1nc2c(c(=O)[nH]c(=O)n2C)n1CCc1ccccc1 (stereo unspecified)
[2]
  AC50: 35.5 µM [rising, single point]

## COc1ccc2nc3sc(C(=O)NCCN4CCc5ccccc5C4)cc3cc2c1
[2]
  AC50: 35.5 µM [rising, single point]

## Cc1ccc(CC2SC(=Nc3ccccc3)N(c3ccccc3)C2=O)cc1 (stereo unspecified)
[2]
  AC50: 35.5 µM [rising, single point]

## CCOc1ccc(CNC(=O)c2ccc(Sc3ccc(Cl)cc3)c(NC(C)=O)c2)cc1OC
[1]
  AC50: 11.2 µM [falling, partial curve]
[2]
  AC50: 14.1 µM [rising, single point] and 12.6 µM [falling, partial curve]

## CC(=O)c1ccc(N2CCN(C(=O)COc3ccc(F)cc3)CC2)c(F)c1
[2]
  AC50: 35.5 µM [rising, single point]

## CCC(=O)Oc1ccc2c(C)cc(=O)oc2c1C
[2]
  AC50: 17.8 µM [rising, single point]

## Cc1ccc(NC(=O)c2cccs2)cc1S(=O)(=O)N(C)C
[1]
  AC50: 10 µM [rising, partial curve]
[2]
  AC50: 12.6 µM [rising, single point]

## C/C=C/C(=O)OCC(=O)Nc1cccc(F)c1
[1]
  AC50: 25.1 µM [falling, partial curve, poor fit]

## CC(=O)N1CC[n+]2c(-c3ccc(Cl)cc3Cl)csc21
[1]
  AC50: 22.4 µM [rising, single point]

## Cc1ccc(S(=O)(=O)NC(=O)Nc2ccccc2)cc1
[2]
  AC50: 35.5 µM [falling, partial curve]

## Cc1ccc(-c2cc(C(F)(F)F)n3ncc(C(=O)N4CCCCC4c4cccnc4)c3n2)cc1 (stereo unspecified)
[1]
  AC50: 0.891 µM [rising, partial curve, poor fit]
[2]
  AC50: 0.00355 µM [rising, full curve, poor fit]

## CC(=O)c1ccc(N2CCN(S(=O)(=O)c3ccc4[nH]c5c(c4c3)CCCC5)CC2)cc1
[1]
  AC50: 0.398 µM [falling, single point]
